# Binding screen against folded nucleic acids

Targets (5′ to 3′):
TPP: TPP riboswitch RNA three-way junction, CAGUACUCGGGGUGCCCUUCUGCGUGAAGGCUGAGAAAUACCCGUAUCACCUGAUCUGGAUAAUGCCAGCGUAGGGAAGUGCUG. About 24,000 compounds screened, about 160 hits.
SAM-II: SAM-II riboswitch RNA pseudoknot, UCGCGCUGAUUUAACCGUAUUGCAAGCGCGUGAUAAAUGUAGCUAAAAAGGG. About 21,000 compounds screened, about 200 hits.
PreQ1: PreQ1 riboswitch RNA pseudoknot, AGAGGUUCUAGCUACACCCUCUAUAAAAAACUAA. From B. subtilis. About 24,000 compounds screened, about 170 hits.

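Each compound is printed as two spots on a slide made to bind it covalently, so it has no test concentration; the read-out is fluorescence of the bound, labelled oligonucleotide. The data file lists only calls. An earlier report of the laboratory on the PreQ1, TPP and SAM-II riboswitches (doi:10.1038/s41467-019-09493-3) used 1 µM RNA for 2 h and required a mean Z-score above 3 (spot signal-to-noise against the whole library), a score well above that on a control array, and duplicate spots agreeing (coefficient of variation under 100); it then also set aside compounds that hit other targets, which this list keeps. The cut-offs behind this list may differ. These are primary screening calls, not affinities; a compound without a hit may have attached poorly or may still bind in solution.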 A compound is marked active if it was called a hit and inactive if it was screened but was not. Compounds were drawn at random from those tested, without regard to their results. A target missing from an entry has no call listed here.

* O=C(O)c1ccc(CN2C[C@@H](CN3CCCCCC3)[C@@H](CO)C2)cc1 : TPP: inactive; SAM-II: inactive; PreQ1: inactive
* Cn1ncc2c(NCCc3nnc(N)s3)nc(-c3cccnc3)nc21 : TPP: inactive; SAM-II: inactive; PreQ1: inactive
* COC(=O)c1nnn(CC(=O)Nc2cccc(C)c2C)c1N : TPP: inactive; SAM-II: inactive; PreQ1: inactive
* CC(=O)NCC1CCC2(CCN(Cc3cc4n(n3)CCNC4)CC2)O1 (centres undefined) : TPP: inactive; SAM-II: inactive; PreQ1: inactive
* COc1cccc(CNS(=O)(=O)c2cc(Br)cnc2N)c1 : TPP: inactive; PreQ1: inactive
* CN1CCC2(CC1)CN(C(=O)c1cccc(N)c1)CCN2C : TPP: inactive; SAM-II: inactive; PreQ1: inactive
* COc1cccc(CNc2nc3cc(C)ccc3cc2-c2noc(C)n2)c1 : TPP: inactive; PreQ1: inactive
* CCCCCCCNCc1ccc(C)s1 : TPP: inactive; SAM-II: inactive; PreQ1: inactive
* CCCc1cc(N2CCN(CCO)CC2)n2nc3nc(C)cc(C)c3c2n1 : TPP: inactive; PreQ1: inactive
* CCC1CN(C(=O)c2ccc(NCCO)nc2)CCN1C(C)C (centres undefined) : TPP: inactive; SAM-II: inactive; PreQ1: inactive
* CC1CCCC(Nc2c(-c3cccs3)[nH]c3c(C#N)cnn23)C1C (centres undefined) : TPP: inactive; PreQ1: inactive
* COc1ccc(C(=O)c2ccc(Cl)c(N)c2)cc1OC : TPP: inactive; SAM-II: inactive; PreQ1: inactive
* Cc1cccnc1CCn1cnc(-c2ccccc2)c1-c1ccc(CO)o1 : TPP: inactive; SAM-II: inactive; PreQ1: inactive
* Cc1nc2c(c(Nc3ccc(S(=O)(=O)NCc4ccccc4)cc3)n1)CCC2 : TPP: inactive; PreQ1: inactive
* COc1ccc(OC)c(Nc2cc(Cl)nc(N)n2)c1 : TPP: inactive; SAM-II: inactive; PreQ1: inactive
* O=C(O)CCc1cc2n(n1)CCCN(CC[C@@H](O)c1ccccc1)C2 : TPP: inactive; SAM-II: inactive; PreQ1: inactive
* C[C@]12C=CC(=O)C=C1CC[C@@H]1[C@@H]2[C@@H](O)C[C@@]2(C)[C@@H]1CC[C@]2(O)C(=O)CO : TPP: inactive; SAM-II: inactive; PreQ1: inactive
* COc1cc(CC(=O)NCCO)c(OC)c2c1OCO2 : TPP: inactive; SAM-II: inactive; PreQ1: inactive
* O=C1OC(Nc2cc(C(F)(F)F)ccc2Cl)c2ccccc21 (centres undefined) : TPP: inactive; SAM-II: inactive; PreQ1: inactive
* C=CCn1ncc(-c2cc(-c3ccc(OC)nc3)nc(N)c2C#N)c1C : TPP: inactive; SAM-II: inactive; PreQ1: inactive
* Cc1ccc(Nc2cc(N3CCN(C(=O)c4cccs4)CC3)nc(C)n2)cc1 : TPP: inactive; PreQ1: inactive
* O=C(NCc1cc2n(n1)CCNC2)c1nc2ccccc2[nH]c1=O : TPP: inactive; SAM-II: inactive; PreQ1: inactive
* Cc1ccccc1Cn1c(CCNC(=O)CCCO)nc2ccccc21 : TPP: inactive; PreQ1: inactive
* CC(C)NC(=O)[C@@H]1C[C@@H](NC(=O)c2ccon2)CN1Cc1cccnc1N : TPP: inactive; SAM-II: inactive; PreQ1: inactive
* CNc1oc(-c2ccc(C)cc2)nc1S(=O)(=O)c1ccccc1 : TPP: inactive; PreQ1: inactive
* CC1=CC(C)C(CN(C2CCCCC2)S(=O)(=O)c2ccc(N)cc2)C(C)C1 (centres undefined) : TPP: inactive; SAM-II: inactive; PreQ1: inactive
* CC(C)NC(=O)[C@@H]1C[C@H](N)CN1C(=O)c1cccc2c3c([nH]c12)CCCC3 : TPP: inactive; SAM-II: inactive; PreQ1: inactive
* Cc1cc(N2CCC3(CC2)c2ccccc2[C@@H](N)[C@@H]3O)nc(-c2ccccc2)n1 : TPP: inactive; SAM-II: inactive; PreQ1: inactive
* COC(=O)C1=C(C)NC(C)=C(C(=O)OCCN2CCN(C(c3ccccc3)c3ccccc3)CC2)C1c1cccc([N+](=O)[O-])c1 (centres undefined) : TPP: inactive; SAM-II: inactive; PreQ1: inactive
* Cc1cc(C)c2c(N[C@@H]3C[C@@H](CO)N(C)C3)ncnc2n1 : TPP: inactive; SAM-II: inactive; PreQ1: inactive
* Cc1ccsc1[C@@H]1CCN(C(=O)CC2=CCCCC2)C[C@H]1O : TPP: inactive; SAM-II: inactive; PreQ1: inactive
* Clc1ccc(COC(Cn2ccnc2)c2ccc(Cl)cc2Cl)c(Cl)c1 (centres undefined) : TPP: inactive; SAM-II: inactive; PreQ1: inactive
* CC(=O)N1CCCC(NC2CCN(c3cc(C)nc(N4CCCCC4)n3)CC2)C1 (centres undefined) : TPP: inactive; SAM-II: inactive; PreQ1: inactive
* CCCOc1ccc(Oc2nc(NC(C)(C)C)nc(N(C)C)n2)nn1 : TPP: inactive; PreQ1: inactive
* Cc1cc(=O)oc2cc(OS(C)(=O)=O)ccc12 : TPP: inactive; SAM-II: inactive; PreQ1: inactive
* Cc1ccc(NC(=O)c2nnn(Cc3cccc(Br)c3)c2N)cc1C : TPP: inactive; SAM-II: inactive; PreQ1: inactive

The last 2 entries again:

compound,TPP,SAM-II,PreQ1
Cc1cc(=O)oc2cc(OS(C)(=O)=O)ccc12,inactive,inactive,inactive
Cc1ccc(NC(=O)c2nnn(Cc3cccc(Br)c3)c2N)cc1C,inactive,inactive,inactive

Data from the ROBIN nucleic acid binder screens, doi:10.1002/anie.202211358.